Compound in this experiment: Nc1nc2c(ncn2[C@@H]2O[C@H](COP(=O)(O)OP(=O)(O)OP(=O)(O)O)[C@@H](O)[C@H]2O)c(=O)[nH]1 [guanosine triphosphate]
The experiment in a line: NP40-soluble protein abundance relative to vehicle (solubility fold change) (ratio); higher = more soluble protein in presence of GTP. How it is done: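 Solubility proteome profiling in Jurkat crude lysate. Lysate was treated with Mg-GTP (0.1-10 mM) for 10 min at room temperature and 3 min at 37 °C, then solubilised with 0.8% NP40 and benzonase, followed by ultracentrifugation. Proteins were quantified by TMT10 LC-MS/MS; the value is the NP40-soluble abundance relative to the NP40-processed vehicle, from 3 independent experiments.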

By UniProt entry, the sequences of proteins in these tests, tags left out. Where a name states a change or a piece, a line headed by the entry shows the natural chain unless it says otherwise.
UniProt P57105: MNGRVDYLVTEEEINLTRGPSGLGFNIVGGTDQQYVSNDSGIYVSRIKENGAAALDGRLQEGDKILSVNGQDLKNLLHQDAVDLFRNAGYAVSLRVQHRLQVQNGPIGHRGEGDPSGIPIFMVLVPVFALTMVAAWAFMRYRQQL
UniProt P47974: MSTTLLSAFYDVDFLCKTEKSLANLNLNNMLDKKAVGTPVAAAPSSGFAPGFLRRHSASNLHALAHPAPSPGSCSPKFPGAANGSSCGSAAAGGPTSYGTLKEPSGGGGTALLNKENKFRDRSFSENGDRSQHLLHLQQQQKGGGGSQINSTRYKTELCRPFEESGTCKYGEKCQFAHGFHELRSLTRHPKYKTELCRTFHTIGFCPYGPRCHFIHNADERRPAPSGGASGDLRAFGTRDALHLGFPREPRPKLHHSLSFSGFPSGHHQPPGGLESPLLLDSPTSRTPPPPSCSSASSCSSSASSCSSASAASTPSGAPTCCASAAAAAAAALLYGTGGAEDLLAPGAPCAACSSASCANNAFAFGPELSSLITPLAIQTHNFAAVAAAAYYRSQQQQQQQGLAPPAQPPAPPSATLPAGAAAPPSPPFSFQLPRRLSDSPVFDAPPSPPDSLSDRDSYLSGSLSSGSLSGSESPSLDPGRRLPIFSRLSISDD
UniProt Q96PV6, whole entry: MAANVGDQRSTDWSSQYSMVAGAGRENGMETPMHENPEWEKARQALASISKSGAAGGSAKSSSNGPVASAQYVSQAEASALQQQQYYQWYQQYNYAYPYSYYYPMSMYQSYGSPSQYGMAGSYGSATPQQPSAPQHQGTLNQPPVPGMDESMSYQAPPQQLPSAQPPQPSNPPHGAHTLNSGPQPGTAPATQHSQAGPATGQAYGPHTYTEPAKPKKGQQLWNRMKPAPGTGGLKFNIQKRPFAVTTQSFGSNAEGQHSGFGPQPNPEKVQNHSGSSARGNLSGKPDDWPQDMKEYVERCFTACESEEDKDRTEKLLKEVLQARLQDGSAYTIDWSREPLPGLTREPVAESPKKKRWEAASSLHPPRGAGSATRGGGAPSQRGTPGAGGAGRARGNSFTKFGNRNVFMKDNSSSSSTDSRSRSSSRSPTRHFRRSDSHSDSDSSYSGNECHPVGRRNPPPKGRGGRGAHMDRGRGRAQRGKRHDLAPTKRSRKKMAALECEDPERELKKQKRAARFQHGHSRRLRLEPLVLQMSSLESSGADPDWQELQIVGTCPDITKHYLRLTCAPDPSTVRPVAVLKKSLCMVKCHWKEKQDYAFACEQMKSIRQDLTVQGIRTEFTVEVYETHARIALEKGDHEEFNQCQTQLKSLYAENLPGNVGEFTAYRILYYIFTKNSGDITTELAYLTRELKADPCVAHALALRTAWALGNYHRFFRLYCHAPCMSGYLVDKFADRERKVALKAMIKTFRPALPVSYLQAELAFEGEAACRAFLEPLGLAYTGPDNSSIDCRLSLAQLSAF
UniProt P26599: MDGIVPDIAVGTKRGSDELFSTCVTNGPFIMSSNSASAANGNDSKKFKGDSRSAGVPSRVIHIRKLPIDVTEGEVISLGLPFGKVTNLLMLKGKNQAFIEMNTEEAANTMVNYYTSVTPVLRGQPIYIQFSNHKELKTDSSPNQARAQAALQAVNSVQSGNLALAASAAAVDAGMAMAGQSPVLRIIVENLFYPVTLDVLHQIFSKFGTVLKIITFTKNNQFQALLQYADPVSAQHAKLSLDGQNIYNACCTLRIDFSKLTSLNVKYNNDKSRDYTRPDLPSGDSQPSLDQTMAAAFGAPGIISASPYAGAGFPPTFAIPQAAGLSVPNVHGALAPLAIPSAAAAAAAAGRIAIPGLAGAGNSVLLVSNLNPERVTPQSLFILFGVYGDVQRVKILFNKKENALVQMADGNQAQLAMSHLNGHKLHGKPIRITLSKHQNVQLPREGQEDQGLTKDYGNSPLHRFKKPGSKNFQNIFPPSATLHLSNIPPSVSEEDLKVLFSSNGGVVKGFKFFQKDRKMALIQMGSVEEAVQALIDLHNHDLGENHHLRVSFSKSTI
UniProt P46013: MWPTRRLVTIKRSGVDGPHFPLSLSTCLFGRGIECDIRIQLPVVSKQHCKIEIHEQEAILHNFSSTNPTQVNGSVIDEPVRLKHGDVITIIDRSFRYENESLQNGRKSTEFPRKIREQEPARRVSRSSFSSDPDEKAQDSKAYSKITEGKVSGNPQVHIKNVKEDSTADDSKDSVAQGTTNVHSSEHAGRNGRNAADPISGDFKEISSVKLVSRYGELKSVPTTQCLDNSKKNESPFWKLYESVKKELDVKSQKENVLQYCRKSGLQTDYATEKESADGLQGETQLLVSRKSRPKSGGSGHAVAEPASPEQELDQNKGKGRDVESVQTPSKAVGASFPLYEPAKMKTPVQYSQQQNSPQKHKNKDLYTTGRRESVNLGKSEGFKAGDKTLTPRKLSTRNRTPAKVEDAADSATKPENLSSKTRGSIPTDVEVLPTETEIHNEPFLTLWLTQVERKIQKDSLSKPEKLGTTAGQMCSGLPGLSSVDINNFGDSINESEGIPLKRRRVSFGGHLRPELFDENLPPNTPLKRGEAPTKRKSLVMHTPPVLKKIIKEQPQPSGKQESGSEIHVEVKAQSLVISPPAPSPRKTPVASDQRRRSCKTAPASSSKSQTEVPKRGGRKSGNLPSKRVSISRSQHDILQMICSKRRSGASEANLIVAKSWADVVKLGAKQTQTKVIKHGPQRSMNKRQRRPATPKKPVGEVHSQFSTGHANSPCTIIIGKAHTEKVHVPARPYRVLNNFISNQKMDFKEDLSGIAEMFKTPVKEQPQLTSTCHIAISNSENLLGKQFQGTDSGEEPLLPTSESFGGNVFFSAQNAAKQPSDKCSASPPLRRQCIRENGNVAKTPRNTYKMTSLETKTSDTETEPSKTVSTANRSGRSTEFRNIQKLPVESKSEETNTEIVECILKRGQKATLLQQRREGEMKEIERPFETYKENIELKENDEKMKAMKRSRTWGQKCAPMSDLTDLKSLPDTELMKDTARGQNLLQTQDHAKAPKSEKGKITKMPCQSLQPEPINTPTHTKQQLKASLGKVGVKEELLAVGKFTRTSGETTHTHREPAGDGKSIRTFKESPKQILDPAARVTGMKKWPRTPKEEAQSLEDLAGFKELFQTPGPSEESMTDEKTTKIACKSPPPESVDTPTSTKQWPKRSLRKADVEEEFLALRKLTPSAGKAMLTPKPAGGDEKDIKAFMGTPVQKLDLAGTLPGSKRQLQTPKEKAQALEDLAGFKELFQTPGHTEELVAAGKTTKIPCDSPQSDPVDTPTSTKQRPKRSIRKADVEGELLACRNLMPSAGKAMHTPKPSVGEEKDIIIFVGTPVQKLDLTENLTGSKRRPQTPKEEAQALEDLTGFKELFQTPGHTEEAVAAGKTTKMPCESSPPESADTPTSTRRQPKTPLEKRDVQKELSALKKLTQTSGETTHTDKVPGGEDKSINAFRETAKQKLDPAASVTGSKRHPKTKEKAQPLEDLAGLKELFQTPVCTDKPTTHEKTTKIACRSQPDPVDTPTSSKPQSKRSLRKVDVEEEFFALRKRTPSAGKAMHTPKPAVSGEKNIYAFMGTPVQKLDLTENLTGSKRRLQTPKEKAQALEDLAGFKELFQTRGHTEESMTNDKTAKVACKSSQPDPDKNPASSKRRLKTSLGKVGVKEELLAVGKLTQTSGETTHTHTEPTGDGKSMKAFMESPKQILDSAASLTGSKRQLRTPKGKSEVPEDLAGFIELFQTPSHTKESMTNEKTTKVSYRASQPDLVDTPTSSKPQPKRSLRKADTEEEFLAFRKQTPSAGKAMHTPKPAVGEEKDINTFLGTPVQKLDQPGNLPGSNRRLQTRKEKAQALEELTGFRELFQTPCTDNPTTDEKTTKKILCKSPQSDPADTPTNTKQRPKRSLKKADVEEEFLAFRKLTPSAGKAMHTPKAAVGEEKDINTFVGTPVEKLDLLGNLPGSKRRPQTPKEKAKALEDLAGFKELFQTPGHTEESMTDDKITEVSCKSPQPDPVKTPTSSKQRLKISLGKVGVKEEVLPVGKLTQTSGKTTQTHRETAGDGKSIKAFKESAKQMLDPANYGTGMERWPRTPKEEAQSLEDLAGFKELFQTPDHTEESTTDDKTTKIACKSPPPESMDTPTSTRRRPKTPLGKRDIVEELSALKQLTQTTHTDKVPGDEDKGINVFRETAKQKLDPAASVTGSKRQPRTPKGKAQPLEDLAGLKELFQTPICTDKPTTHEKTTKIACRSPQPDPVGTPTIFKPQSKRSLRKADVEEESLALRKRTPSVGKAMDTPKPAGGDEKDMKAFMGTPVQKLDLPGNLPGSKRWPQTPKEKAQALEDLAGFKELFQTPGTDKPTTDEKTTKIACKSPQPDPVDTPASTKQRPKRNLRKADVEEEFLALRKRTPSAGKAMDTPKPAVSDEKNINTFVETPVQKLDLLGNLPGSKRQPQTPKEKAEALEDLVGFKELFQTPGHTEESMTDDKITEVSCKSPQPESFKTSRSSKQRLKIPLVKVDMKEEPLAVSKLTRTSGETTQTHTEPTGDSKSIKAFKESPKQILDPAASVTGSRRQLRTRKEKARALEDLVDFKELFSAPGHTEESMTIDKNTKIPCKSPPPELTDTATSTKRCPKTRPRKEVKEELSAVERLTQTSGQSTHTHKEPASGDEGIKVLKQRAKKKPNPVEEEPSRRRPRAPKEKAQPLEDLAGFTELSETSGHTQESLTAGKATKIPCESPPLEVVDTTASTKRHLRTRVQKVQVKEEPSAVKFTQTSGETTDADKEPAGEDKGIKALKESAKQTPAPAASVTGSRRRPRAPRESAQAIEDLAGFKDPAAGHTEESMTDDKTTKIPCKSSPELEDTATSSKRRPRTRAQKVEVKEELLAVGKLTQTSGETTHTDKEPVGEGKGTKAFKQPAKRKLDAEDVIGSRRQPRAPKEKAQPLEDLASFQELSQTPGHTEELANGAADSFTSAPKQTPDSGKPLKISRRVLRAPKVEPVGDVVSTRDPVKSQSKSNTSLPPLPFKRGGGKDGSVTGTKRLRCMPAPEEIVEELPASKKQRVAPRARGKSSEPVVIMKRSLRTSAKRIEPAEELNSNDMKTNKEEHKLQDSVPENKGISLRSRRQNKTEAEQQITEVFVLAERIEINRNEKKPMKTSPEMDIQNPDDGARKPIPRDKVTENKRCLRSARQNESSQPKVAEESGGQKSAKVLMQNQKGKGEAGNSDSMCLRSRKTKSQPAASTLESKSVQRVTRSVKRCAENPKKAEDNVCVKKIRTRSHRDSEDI

± gives the standard deviation of the averaged measurements. The list shows a part of the results.

Turning to A0A087WUM0 (UniProt P57105), the NP40-soluble protein abundance (concentration: 0.1mM) came to 0.917 ± 0.082; the NP40-soluble protein abundance (concentration: 0.5mM) was found to be 0.889 ± 0.099; the NP40-soluble protein abundance (concentration: 1mM) was determined as 0.932 ± 0.06; the NP40-soluble protein abundance (concentration: 2mM) was 0.889 ± 0.083; the NP40-soluble protein abundance (concentration: 4mM) stood at 0.885 ± 0.1; the NP40-soluble protein abundance (concentration: 6mM) was 0.89 ± 0.11. Also, the NP40-soluble protein abundance was found to be 0.881 ± 0.15 (concentration: 8mM) and 0.885 ± 0.099 (concentration: 10mM).

With A0A087WUU9|P47974 (UniProt P47974), the NP40-soluble protein abundance is, setting by setting: (concentration: 0.1mM) 1.06 ± 0.07; (concentration: 0.5mM) 1.02 ± 0.026; (concentration: 1mM) 1.09 ± 0.071; (concentration: 2mM) 1.12 ± 0.05; (concentration: 4mM) 1.06 ± 0.046; (concentration: 6mM) 1.03 ± 0.033. The NP40-soluble protein abundance (concentration: 8mM) was determined as 1.04 ± 0.027 and the NP40-soluble protein abundance (concentration: 10mM) came out at 1.06 ± 0.028.

Consider “A0A087WTE7|A0A087WUE4|C9JMY0 and related entries (UniProt Q96PV6)”, for which the NP40-soluble protein abundance by setting is: (concentration: 0.1mM) 0.977 ± 0.043; (concentration: 0.5mM) 0.967 ± 0.039; (concentration: 1mM) 1.03 ± 0.021; (concentration: 2mM) 1.02 ± 0.083; (concentration: 4mM) 1.09 ± 0.064; (concentration: 6mM) 1.14 ± 0.066. Further, the NP40-soluble protein abundance is 1.26 ± 0.089 (concentration: 8mM) and 1.29 ± 0.17 (concentration: 10mM).

Consider “A0A087WUW5|A0A0U1RRM4|A6NLN1 and related entries (UniProt P26599)”, for which the NP40-soluble protein abundance (concentration: 0.1mM) was 0.954 ± 0.078; the NP40-soluble protein abundance (concentration: 0.5mM) was determined as 0.949 ± 0.079; the NP40-soluble protein abundance (concentration: 1mM) came to 0.933 ± 0.072; the NP40-soluble protein abundance (concentration: 2mM) stood at 0.879 ± 0.078; the NP40-soluble protein abundance (concentration: 4mM) was found to be 0.887 ± 0.073; the NP40-soluble protein abundance (concentration: 6mM) is 0.894 ± 0.068. Also, the NP40-soluble protein abundance is, setting by setting: (concentration: 8mM) 0.901 ± 0.073; (concentration: 10mM) 0.896 ± 0.074.

With “A0A087WV66|P46013 and related entries (UniProt P46013)”, the NP40-soluble protein abundance amounted to 0.93 ± 0.047 (concentration: 0.1mM); 0.942 ± 0.076 (concentration: 0.5mM); 0.977 ± 0.069 (concentration: 1mM); 0.957 ± 0.11 (concentration: 2mM); 0.956 ± 0.11 (concentration: 4mM); 0.987 ± 0.12 (concentration: 6mM). The NP40-soluble protein abundance by setting is: (concentration: 8mM) 1.02 ± 0.078; (concentration: 10mM) 1.03 ± 0.09.

Source of the values: the supplement of paper PMC6411743.
